From publication PMC12412623
No constants are given. Whether binding was seen depends on the method and setting. Binding seen in cells or lysates may run through a third protein.

Chains of the proteins cited; added tags and fusions are not shown.
UniProt Q96I24: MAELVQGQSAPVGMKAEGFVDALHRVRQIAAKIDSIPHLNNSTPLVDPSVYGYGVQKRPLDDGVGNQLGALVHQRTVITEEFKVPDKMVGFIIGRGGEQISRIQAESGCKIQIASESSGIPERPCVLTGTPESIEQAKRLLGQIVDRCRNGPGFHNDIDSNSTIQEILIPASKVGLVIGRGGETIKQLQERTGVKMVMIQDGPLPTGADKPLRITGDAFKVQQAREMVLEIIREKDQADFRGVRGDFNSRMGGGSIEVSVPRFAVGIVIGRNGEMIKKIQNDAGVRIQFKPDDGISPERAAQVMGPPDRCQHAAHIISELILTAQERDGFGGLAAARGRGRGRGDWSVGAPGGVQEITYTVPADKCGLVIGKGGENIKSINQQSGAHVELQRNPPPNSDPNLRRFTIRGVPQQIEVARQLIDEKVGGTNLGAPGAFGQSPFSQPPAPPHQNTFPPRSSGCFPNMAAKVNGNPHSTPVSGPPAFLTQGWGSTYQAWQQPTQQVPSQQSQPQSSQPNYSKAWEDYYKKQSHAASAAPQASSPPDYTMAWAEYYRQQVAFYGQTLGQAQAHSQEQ
UniProt Q9Y6M1: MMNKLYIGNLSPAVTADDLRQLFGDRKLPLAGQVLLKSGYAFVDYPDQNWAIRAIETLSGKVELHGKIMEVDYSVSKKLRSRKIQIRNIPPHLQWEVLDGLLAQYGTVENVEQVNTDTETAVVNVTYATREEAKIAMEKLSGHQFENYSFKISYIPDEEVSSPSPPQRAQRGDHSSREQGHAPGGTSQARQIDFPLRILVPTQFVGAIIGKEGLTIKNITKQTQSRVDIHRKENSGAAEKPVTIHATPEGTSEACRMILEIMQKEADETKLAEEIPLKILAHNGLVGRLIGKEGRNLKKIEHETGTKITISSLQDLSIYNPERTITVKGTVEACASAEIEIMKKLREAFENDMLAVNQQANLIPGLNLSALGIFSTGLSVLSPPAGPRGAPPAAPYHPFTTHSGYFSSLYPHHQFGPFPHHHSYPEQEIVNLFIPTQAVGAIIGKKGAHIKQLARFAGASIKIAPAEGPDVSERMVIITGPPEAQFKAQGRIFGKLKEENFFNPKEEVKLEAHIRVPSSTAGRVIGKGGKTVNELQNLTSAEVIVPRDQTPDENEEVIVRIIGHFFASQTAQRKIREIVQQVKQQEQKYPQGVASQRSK

Target: far upstream element-binding protein 3 (UniProt Q96I24)
Test: co-IP; H1299 and PC9 cells transfected with IGF2BP2 or FUBP3 vectors; RIPA lysis and ultrasonication; lysate incubated overnight at 4 °C with antibody-loaded magnetic beads (IgG as control); washed thrice with binding buffer; western blot; CoIP using FUBP3

binding: no binding
Substance: Insulin-like growth factor 2 mRNA-binding protein 2 (from UniProt Q9Y6M1 1-599)
